Measurements: publication PMC12848939

Protein sequences, listed by entry. Tags and fused reporters are not part of them.
UniProt Q12499: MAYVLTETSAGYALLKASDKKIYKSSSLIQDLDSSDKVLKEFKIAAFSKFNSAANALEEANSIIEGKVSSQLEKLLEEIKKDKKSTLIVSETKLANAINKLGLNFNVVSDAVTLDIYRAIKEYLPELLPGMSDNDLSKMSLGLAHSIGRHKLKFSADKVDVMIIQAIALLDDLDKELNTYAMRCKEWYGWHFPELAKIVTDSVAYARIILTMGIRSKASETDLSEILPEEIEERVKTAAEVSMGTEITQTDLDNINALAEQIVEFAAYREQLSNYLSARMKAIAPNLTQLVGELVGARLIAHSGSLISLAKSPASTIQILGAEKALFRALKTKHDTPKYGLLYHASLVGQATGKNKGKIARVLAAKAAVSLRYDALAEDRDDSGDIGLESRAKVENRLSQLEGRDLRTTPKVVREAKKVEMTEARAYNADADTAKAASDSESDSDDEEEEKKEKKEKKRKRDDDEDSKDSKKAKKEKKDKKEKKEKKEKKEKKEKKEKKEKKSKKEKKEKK
UniProt P34241: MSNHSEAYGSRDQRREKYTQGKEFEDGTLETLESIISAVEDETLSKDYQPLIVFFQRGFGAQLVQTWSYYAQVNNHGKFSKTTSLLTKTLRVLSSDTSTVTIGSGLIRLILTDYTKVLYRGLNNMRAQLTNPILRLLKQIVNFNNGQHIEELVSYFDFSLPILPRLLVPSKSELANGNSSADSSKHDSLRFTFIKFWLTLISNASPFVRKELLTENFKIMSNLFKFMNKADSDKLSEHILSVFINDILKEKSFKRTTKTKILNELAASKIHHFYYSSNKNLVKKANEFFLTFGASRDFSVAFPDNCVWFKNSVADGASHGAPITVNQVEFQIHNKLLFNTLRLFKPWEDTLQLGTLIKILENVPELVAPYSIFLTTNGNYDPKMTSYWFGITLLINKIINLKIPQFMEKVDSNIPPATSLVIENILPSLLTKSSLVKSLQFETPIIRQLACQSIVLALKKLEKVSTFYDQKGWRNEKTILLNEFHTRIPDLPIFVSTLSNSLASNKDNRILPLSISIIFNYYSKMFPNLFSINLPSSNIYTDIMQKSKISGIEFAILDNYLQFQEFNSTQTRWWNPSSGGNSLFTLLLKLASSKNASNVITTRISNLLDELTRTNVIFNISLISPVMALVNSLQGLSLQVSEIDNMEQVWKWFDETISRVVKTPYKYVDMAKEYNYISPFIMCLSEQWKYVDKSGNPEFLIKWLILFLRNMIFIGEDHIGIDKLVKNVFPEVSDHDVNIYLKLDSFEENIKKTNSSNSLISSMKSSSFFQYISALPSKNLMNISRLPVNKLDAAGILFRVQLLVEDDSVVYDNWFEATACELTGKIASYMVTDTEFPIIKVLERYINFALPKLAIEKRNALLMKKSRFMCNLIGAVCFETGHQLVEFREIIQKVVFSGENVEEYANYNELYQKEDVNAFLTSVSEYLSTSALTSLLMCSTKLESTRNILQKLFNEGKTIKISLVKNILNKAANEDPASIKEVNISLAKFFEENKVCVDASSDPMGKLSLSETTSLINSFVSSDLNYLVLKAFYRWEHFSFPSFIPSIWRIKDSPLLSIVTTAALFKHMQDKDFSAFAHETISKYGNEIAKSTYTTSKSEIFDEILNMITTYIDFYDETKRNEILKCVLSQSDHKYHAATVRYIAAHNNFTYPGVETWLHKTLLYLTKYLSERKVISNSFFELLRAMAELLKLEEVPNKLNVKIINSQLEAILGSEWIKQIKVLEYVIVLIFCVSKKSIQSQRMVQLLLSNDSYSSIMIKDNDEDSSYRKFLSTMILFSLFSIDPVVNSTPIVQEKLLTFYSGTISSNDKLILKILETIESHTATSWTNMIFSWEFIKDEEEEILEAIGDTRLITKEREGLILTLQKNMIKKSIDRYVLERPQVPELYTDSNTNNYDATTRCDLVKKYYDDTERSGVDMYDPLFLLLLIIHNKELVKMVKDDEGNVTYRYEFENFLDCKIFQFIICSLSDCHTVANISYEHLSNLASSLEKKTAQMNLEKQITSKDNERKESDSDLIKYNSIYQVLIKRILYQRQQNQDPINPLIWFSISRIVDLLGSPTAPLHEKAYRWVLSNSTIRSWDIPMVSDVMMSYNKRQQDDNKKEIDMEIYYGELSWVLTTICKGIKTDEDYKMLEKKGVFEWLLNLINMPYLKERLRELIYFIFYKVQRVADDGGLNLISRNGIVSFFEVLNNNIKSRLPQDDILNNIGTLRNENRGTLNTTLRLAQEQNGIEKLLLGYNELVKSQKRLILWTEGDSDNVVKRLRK

B1: Dhr2 (enzyme, UniProt P36009 1-735)
chain: MAANSNSRVASNHTSKKQKVRRNIHPFTNNTRIKRASKIVKFNDSGEGDHVSDQRSNKENVLTYKSLKSRASDLLKMRETLPVYQHKREIMSYIESNPVTVLIGETGSGKSTQIPQFVLEKLYDTKKHGSIAVTQPRRVAAINLATRVAQEHGCKLGEQVGYSVRFDNTTTTRTRLKYLTDGMLLRELMMNSDLREYSVIVIDEAHERTVLTDLILGFLKSLIQGPRPDLRIIVMSATLQAEKFSEFFNNAPILFVEGRKFDVKQYYLKAPTDDIVDAVIRCCIQINQGEELGDILCFLPGQEEIDKAVTIMEKIAKYVSDEAPVPLIVPYPLYAALPAVQQSLVFAPIKGFKRKVVFSTNIAETSVTISGVKFVVDSGLRKVKVWRHQLGLATLLTVPISQASAMQRSGRAGRESEGKSFRLYCESDYVKLPKQSEPEIARSDVTSPVLMLKRYGVDDLLNWTWFENPGKEAIVMGLQELYELGALDTRGKITKRGQQMALLPLQPHLSSVLIKASEVGCLSQVIDIVSCLSVENLLLNPSPEERDEVNERRLSLCNAGKRYGDLIMLKELFDIYFYELGKSQDASSERNDWCKGLCISIRGFKNVIRVRDQLRVYCKRLFSSISEEDEESKKIGEDGELISKILKCFLTGFIKNTAIGMPDRSYRTVSTGEPISIHPSSMLFMNKSCPGIMYTEYVFTTKGYARNVSRIELSWLQEVVTNAAAVAKQKVSDSK
B2: Rio1 (enzyme, UniProt Q12196 1-484)
chain: MSLEDKFDSLSVSQGASDHINNQLLEKYSHKIKTDELSFSRAKTSKDKANRATVENVLDPRTMRFLKSMVTRGVIADLNGCLSTGKEANVYHAFAGTGKAPVIDEETGQYEVLETDGSRAEYAIKIYKTSILVFKDRERYVDGEFRFRNSRSQHNPRKMIKIWAEKEFRNLKRIYQSGVIPAPKPIEVKNNVLVMEFLSRGNGFASPKLKDYPYKNRDEIFHYYHTMVAYMRLLYQVCRLVHADLSEYNTIVHDDKLYMIDVSQSVEPEHPMSLDFLRMDIKNVNLYFEKMGISIFPERVIFQFVISETLEKFKGDYNNISALVAYIASNLPIKSTEQDEAEDEIFRSLHLVRSLGGLEERDFDRYTDGKFDLLKSLIAHDNERNFAASEQFEFDNADHECSSGTEEFSDDEEDGSSGSEEDDEEEGEYYDDDEPKVLKGKKHEDKDLKKLRKQEAKDAKREKRKTKVKKHIKKKLVKKTKSKK
B3: Erb1 (protein, UniProt Q04660 1-807)
chain: MMAKNNKTTEAKMSKKRAASEESDVEEDEDKLLSVDGLIDAEASESDEDDDEYESAVEEKESSSDKEAQDDSDDDSDAELNKLLAEEEGDGEEDYDSSEFSDDTTSLTDRLSGVKLQTIVDPNIYSKYADGSDRIIKPEINPVYDSDDSDAETQNTIGNIPLSAYDEMPHIGYDINGKRIMRPAKGSALDQLLDSIELPEGWTGLLDKNSGSSLNLTKEELELISKIQRNEQTDDSINPYEPLIDWFTRHEEVMPLTAVPEPKRRFVPSKNEAKRVMKIVRAIREGRIIPPKKLKEMKEKEKIENYQYDLWGDSTETNDHVMHLRAPKLPPPTNEESYNPPEEYLLSPEEKEAWENTEYSERERNFIPQKYSALRKVPGYGESIRERFERSLDLYLAPRVRKNKLNIDPNSLIPELPSPKDLRPFPIRCSTIYAGHKGKVRTLSIDPSGLWLATGSDDGTVRVWEILTGREVYRTTLIDDEENPDYHIECIEWNPDANNGILAVAVGENIHLIVPPIFGYDIENNGKTKIEDGFGYDTFGTVKKSNLEVNENGDGDEDGENESAKNAVKKQVAQWNKPSQKQLEKDICITISCKKTVKKLSWHRKGDYFVTVQPDSGNTSVLIHQVSKHLTQSPFKKSKGIIMDAKFHPFKPQLFVCSQRYVRIYDLSQQILVKKLLPGARWLSKIDIHPRGDNLIASSFDKRVLWHDLDLASTPYKTLRYHEKAVRSVNFHKKLPLFSSAADDGTIHVFHATVYDDMMKNPMIVPLKKLTGHKVINSLGVLDAIWHPREAWLFSAGADNTARLWTT
B4: Nsa2 (protein, UniProt P40078 1-261)
chain: MPQNDYIERHIKQHGKRLDHEERKRKREARESHKISERAQKLTGWKGKQFAKKRYAEKVSMRKKIKAHEQSKVKGSSKPLDTDGDALPTYLLDREQNNTAKAISSSIKQKRLEKADKFSVPLPKVRGISEEEMFKVIKTGKSRSKSWKRMITKHTFVGEGFTRRPVKMERIIRPSALRQKKANVTHPELGVTVFLPILAVKKNPQSPMYTQLGVLTKGTIIEVNVSELGMVTAGGKVVWGKYAQVTNEPDRDGCVNAVLLV
B5: Rrp17 (protein, UniProt Q04031 1-235)
chain: MAVHTNRQILTRGKNYATKQSKKFGTDEVTFDKDSRLDYLTGFHKRKLQRQKKAQEFIKEQERLRKIEERQKIRQERKEVMEEQLKTFKESLNLEAEIEDAKNDKTEDLQVESDESWHGFDSDKDDGDNDNNESSVKPILKKGAITEIYDDSTTVELETLEPNDNFEYLAQLNNVKLEKAEKVLKQSINRATKYAKFLGVDEKQKKKPRVKKFRYLTKNERRINQRKANDNKRRR
B6: Ssf1 (protein, UniProt P38789 1-453)
chain: MAKRRQKKRTHAQLTPEQEQGIPKSMVIRVGQTSLANHSLNQLVKDFRQIMQPHTAIKLKERKSNKLKDFVVMCGPLGVTHLFMFTQSEKTGNVSLKIARTPQGPTVTFQVLDYSLGRDIKKFLKRPKSLNNDDVLNPPLLVLNGFSTSKRSGEDDQDVNVEKVIVSMFQNIFPPLNPARTSLNSIKRVFMINKDRETGEISMRHYFIDIREVEISRNLKRLYKAKNNLSKTVPNLHRKEDISSLILDHDLGAYTSESEIEDDAIVRVVDNQDVKAKHSQSLKSQRTPVEKKDNKEREKETEEEDVEMEEPKPSENLQPTPRKKAIKLTELGPRLTLKLVKIEEGICSGKVLHHEFVQKSSEEIKALEKRHAAKMRLKEQRKKEQEENIAKKKAVKDAKKQRKLERRKARAAEGGEGQGKDDAMSDDESSSSDSEHYGSVPEDLDSDLFSEVE
B7: Ctr9 (protein, UniProt P89105 1-1077)
chain: MTNAMKVEGYPSMEWPTSLDIPLKASEELVGIDLETDLPDDPTDLKTLLVEENSEKEHWLTIALAYCNHGKTNEGIKLIEMALDVFQNSERASLHTFLTWAHLNLAKGQSLSVETKEHELTQAELNLKDAIGFDPTWIGNMLATVELYYQRGHYDKALETSDLFVKSIHAEDHRSGRQSKPNCLFLLLRAKLLYQKKNYMASLKIFQELLVINPVLQPDPRIGIGLCFWQLKDSKMAIKSWQRALQLNPKNTSASILVLLGEFRESFTNSTNDKTFKEAFTKALSDLNNIFSENQHNPVLLTLLQTYYYFKGDYQTVLDIYHHRILKMSPMIAKIVLSESSFWCGRAHYALGDYRKSFIMFQESLKKNEDNLLAKLGLGQTQIKNNLLEESIITFENLYKTNESLQELNYILGMLYAGKAFDAKTAKNTSAKEQSNLNEKALKYLERYLKLTLATKNQLVISRAYLVISQLYELQNQYKTSLDYLSKALEEMEFIKKEIPLEVLNNLACYHFINGDFIKADDLFKQAKAKVSDKDESVNITLEYNIARTNEKNDCEKSESIYSQVTSLHPAYIAARIRNLYLKFAQSKIEDSDMSTEMNKLLDLNKSDLEIRSFYGWYLKNSKERKNNEKSTTHNKETLVKYNSHDAYALISLANLYVTIARDGKKSRNPKEQEKSKHSYLKAIQLYQKVLQVDPFNIFAAQGLAIIFAESKRLGPALEILRKVRDSLDNEDVQLNLAHCYLEMREYGKAIENYELVLKKFDNEKTRPHILNLLGRAWYARAIKERSVNFYQKALENAKTALDLFVKESSKSKFIHSVKFNIALLHFQIAETLRRSNPKFRTVQQIKDSLEGLKEGLELFRELNDLKEFNMIPKEELEQRIQLGETTMKSALERSLNEQEEFEKEQSAKIDEARKILEENELKEQGWMKQEEEARRLKLEKQAEEYRKLQDEAQKLIQEREAMAISEHNVKDDSDLSDKDNEYDEEKPRQKRKRSTKTKNSGESKRRKAAKKTLSDSDEDDDDVVKKPSHNKGKKSQLSNEFIEDSDEEEAQMSGSEQNKNDDNDENNDNDDNDGLF
B8: Leo1 (protein, UniProt P38439 1-464)
chain: MSSESPQDQPQKEQISNNVGVTTNSTSNEETSRSQDDNVKEVNGNDDTKEEEQEEDAELDDLFGDDNDDDDDDDVKKSETEKSDSDSDEDDEGENINHRSRHRESLGLDDDEAEEQAMYTRKFYGEDANNFSDQDETTHTFKEENVELVRHIIPSKANVNETASHNEIFYARIPNFLTIDPIPFDPPSFEAKVNERASNSASREDQLDDRLIDENTVRWRYSRDKDQHVFKESNTQIVQWSDGTYSLKVGEECTDILVNDTSNTFLTVSHDQQELIQCYEGGEIKKTLMFIPTSTNSKIHQKLSKAVIRRNQRQSKGPGTYIVSMDPEVEKKELERKQSQILRDRRRRQLKEKEKQESPDAAFETGFRKQNSPTTYGASRRNEYEEDDFLVDDDEEEEAAFDDEEDDNEEEEEEEDADEENASRLRNLKREGAAMYREEEEEEKDRSETKRRRVAVIEDDEDED
B9: Rnh202 (protein, UniProt Q05635 1-350)
chain: MTVSNIGGEERLIILPDDYETSKTINTFTLPPPSNITSKPRIELFENINGKLYEIRSFQFGKGPSYSHEEDLANDKYHYTKENHPIKSTFIVNTSDPTDGYVFNSSKIHFCSLYDIAFSLIGFYYRNSVSADEQDYSNSSDTGENQKSNSKTNEKFLTVRDYHDFLTDNHDKNWENISLSRLKSGLAKVSETIEEAGDVYYKITSAMITQFLLGKVSKIVENFPPSIPTLKNAPTEIKQCYKVVMATNLLVSLIPRAAYHNLLTFSPTMDSGCLNPDIKASFIELENYETTNELQNAERELLMKSAMNVGLNSNGRVSLPVKKVTKKIVQNKKPKVAIGKGAIDGFFKRK
B10: Rnh203 (protein, UniProt Q12338 1-110)
chain: MTKDAVNLDAYTVSFMPFYTEYQGPTEEFKDYKFEDTIYFRGKELKREKSATPSSSDNTTSNTFSNGAILSGNTITGKIVSVNNYEREGTDRNELARLQELISLIDVINQ

Biological target: T1, Sni445-TurboID (S. cerevisiae) (UniProt P53952)
T1 sequence: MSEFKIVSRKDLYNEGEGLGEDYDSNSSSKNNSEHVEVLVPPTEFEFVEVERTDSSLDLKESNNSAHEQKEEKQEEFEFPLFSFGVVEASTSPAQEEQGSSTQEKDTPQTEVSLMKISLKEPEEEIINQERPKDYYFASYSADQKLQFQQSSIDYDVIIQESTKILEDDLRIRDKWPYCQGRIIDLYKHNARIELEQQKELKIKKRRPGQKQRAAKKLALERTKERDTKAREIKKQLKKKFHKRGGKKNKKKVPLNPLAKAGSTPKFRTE
Assay: proximity labelling; TurboID: Sni445-TurboID expressed from the CUP1 promoter in yeast; biotinylated proteins purified on streptavidin beads and identified by MS; enrichment against GFP-TurboID and NLS-GFP-TurboID controls

binding, binds:
B1
B2
B3
B4
B5
B6

Biological target: T2, Sni445-FLAG (S. cerevisiae) (UniProt P53952)
T2 sequence: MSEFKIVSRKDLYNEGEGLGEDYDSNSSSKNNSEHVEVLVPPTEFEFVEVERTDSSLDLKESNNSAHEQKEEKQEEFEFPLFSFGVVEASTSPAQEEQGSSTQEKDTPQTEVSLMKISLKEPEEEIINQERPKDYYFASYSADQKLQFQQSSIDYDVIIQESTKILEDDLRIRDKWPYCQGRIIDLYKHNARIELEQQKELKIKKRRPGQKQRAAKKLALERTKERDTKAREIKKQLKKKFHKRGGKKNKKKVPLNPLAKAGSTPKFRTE
Assay: affinity purification with mass spectrometry; one-step FLAG purification of Sni445-FLAG from yeast lysate (Anti-FLAG M2 Affinity Gel, FLAG-peptide elution; 50 mM Tris-HCl pH 7.5, 100 mM NaCl, 1.5 mM MgCl2, 0.075% NP-40); label-free MS, three replicates

binding, binds:
Rtf1 (from UniProt P53064 1-558)
B7
B8
B9
B10

Biological target: Nop58-FLAG (S. cerevisiae) (UniProt Q12499)
Assay: affinity purification with mass spectrometry; split-tag two-step purification: first Sni445-TAP on IgG Sepharose with TEV elution, then Nop58-FLAG on anti-FLAG M2 agarose with 3x Flag peptide elution; SDS-PAGE, Coomassie, bands identified by MS

binding, binds:
Npa1 (from UniProt P34241 1-1764)

Biological target: T3, Sni445-TAP (S. cerevisiae) (UniProt P53952)
T3 sequence: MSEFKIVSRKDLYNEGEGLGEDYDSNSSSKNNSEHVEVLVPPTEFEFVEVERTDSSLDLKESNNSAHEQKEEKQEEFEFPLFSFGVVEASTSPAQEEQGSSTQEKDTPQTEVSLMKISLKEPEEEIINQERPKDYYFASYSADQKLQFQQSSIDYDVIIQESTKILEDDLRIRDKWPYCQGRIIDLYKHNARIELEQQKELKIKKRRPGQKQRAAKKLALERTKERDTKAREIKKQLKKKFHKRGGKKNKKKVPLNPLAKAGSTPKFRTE
Assay: as above

binding, binds:
Npa1 (from UniProt P34241 1-1764)
Nop58-FLAG (from UniProt Q12499 1-511)

No constants are given. Whether binding was seen depends on the method and setting. Binding seen in cells or lysates may run through a third protein. Here binding means that the protein was enriched with, or labelled near, the bait; the list need not be complete. For some assays here: Sequences can lack the tags named with a protein.
